In article PMC12802155:
Results are given in words; binding and its absence hold for the method and conditions named. Binding seen in cells or lysates may run through a third protein. Here binding means that the protein was enriched with, or labelled near, the bait; the list need not be complete.

Protein sequences, listed by entry. Tags and fused reporters are not part of them.
UniProt P08727: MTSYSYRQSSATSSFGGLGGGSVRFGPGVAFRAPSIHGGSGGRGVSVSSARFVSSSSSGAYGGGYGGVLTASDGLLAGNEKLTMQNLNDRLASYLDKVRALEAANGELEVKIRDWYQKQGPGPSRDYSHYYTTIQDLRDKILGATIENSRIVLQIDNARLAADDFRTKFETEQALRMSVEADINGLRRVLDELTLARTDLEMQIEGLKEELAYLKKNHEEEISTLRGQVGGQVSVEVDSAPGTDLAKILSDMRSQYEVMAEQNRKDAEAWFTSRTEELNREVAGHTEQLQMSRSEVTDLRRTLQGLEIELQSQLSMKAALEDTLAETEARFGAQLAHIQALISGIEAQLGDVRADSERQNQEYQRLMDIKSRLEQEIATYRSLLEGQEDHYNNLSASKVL
UniProt P35579: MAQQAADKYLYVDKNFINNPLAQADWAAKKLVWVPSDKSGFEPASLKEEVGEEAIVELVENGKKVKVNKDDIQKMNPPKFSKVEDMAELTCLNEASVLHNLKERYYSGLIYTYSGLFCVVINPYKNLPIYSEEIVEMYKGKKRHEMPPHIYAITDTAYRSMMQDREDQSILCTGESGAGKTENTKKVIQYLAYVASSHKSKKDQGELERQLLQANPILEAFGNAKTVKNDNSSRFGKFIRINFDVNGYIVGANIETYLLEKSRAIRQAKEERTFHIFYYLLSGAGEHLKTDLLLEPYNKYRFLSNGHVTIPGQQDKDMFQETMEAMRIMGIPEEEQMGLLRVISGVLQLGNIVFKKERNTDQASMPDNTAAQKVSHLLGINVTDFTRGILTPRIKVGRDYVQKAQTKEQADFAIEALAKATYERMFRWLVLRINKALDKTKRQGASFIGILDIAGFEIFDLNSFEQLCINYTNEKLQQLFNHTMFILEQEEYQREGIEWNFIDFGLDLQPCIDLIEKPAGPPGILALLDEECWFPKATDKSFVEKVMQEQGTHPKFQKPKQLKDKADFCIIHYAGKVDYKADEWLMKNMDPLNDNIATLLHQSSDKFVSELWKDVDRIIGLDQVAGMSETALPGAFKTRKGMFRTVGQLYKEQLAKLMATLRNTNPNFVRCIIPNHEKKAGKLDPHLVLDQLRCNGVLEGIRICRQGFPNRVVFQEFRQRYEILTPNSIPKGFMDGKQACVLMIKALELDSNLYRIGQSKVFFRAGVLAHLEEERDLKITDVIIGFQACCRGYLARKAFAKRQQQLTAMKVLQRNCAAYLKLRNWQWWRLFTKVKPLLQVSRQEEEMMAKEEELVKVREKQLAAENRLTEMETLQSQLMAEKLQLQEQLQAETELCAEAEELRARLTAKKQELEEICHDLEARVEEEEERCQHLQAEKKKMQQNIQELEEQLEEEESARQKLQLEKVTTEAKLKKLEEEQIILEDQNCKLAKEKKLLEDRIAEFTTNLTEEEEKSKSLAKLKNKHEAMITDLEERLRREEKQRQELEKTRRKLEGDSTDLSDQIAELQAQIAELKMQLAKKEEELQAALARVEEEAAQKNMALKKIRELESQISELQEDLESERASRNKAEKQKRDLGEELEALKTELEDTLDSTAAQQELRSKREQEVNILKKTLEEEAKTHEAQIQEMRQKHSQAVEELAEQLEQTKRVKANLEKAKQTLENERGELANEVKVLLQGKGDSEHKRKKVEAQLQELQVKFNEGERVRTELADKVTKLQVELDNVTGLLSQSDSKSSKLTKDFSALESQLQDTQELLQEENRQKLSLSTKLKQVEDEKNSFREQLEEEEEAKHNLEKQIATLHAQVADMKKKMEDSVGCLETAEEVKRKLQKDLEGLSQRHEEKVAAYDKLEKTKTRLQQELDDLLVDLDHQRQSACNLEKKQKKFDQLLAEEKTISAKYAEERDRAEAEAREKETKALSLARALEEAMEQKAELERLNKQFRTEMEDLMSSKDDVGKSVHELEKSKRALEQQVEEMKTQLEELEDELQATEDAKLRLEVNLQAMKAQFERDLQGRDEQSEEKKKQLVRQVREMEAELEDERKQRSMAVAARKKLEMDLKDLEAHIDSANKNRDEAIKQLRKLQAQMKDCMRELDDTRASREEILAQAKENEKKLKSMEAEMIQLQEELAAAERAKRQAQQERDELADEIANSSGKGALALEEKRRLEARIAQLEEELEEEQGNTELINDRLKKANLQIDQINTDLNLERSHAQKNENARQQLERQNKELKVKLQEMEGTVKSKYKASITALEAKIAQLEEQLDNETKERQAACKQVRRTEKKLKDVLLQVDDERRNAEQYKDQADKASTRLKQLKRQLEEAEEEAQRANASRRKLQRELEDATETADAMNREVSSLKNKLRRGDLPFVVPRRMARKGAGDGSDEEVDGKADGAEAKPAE

Target: Flag-tagged KRT19 (keratin 19) (UniProt P08727)
Test: affinity purification with mass spectrometry; total extracts of A549 cells stably overexpressing Flag-KRT19 immunoprecipitated with Flag tag antibody or control IgG, SDS-PAGE, silver stain, bands of interest excised, nano-UPLC Q Exactive plus MS

Question: For “myosin heavy chain 9 (MYH9), endogenous (from UniProt P35579 1-1960)”, which binding is on record?
Answer: binds
